Source: publication doi:10.1101/411173
Results are given in words; binding and its absence hold for the method and conditions named. In cells and extracts the contact can be indirect. Some entries that bind do so weakly or less than the wild type. For some of these results: Where a sequence is shown, tags or fusion partners need not be part of it.

T1: Sec61S353C (S. cerevisiae) (UniProt P32915)
T1 sequence: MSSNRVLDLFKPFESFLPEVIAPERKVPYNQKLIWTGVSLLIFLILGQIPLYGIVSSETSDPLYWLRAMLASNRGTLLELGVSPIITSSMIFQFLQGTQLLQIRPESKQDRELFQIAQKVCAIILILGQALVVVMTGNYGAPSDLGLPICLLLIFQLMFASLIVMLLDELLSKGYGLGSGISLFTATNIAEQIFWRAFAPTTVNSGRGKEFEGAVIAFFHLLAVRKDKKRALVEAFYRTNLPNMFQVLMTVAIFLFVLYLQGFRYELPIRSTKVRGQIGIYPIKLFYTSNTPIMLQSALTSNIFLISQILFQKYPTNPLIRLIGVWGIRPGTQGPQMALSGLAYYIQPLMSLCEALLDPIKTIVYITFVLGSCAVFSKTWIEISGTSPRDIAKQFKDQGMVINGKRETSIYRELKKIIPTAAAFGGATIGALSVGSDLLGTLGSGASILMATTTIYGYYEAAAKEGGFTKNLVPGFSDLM

T2: His14-Sec61S353C (S. cerevisiae) (UniProt P32915)
T2 sequence: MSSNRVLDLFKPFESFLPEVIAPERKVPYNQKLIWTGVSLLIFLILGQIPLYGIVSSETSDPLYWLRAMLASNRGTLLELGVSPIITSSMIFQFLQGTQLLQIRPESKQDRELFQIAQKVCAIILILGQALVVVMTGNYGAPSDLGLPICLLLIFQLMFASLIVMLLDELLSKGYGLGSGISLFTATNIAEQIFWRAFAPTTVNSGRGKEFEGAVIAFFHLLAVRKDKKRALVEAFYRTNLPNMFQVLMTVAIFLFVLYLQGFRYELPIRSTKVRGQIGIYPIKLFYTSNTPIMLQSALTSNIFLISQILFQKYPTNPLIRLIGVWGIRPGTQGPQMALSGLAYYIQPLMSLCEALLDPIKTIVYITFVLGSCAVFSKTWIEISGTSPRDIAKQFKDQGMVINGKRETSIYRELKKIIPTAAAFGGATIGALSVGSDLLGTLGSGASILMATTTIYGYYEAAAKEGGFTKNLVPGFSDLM

T3: Sec61 (wildtype) (S. cerevisiae) (UniProt P32915)
T3 sequence: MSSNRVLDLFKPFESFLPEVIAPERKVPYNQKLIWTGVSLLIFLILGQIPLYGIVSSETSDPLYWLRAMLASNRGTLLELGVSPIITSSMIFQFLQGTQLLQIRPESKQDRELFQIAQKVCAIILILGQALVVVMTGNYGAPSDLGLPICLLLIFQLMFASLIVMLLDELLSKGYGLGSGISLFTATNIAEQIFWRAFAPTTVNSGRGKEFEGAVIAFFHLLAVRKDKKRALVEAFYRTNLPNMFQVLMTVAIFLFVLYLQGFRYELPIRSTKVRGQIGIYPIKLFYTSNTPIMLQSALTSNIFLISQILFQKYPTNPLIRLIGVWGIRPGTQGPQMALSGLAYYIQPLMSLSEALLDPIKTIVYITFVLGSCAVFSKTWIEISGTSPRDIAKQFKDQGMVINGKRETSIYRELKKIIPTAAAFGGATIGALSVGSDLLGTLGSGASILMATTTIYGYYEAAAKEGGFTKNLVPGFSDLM


Legend:
[1] = biological target: T1, Sec61S353C (S. cerevisiae); assay: cross-linking
[2] = biological target: T2, His14-Sec61S353C (S. cerevisiae); assay: cross-linking
[3] = biological target: T3, Sec61 (wildtype) (S. cerevisiae); assay: cross-linking + co-IP
[4] = biological target: T1, Sec61S353C (S. cerevisiae); assay: cross-linking + co-IP
[5] = biological target: T3, Sec61 (wildtype) (S. cerevisiae); assay: cross-linking

binding [1]	binding [2]	binding [3]	binding [4]	binding [5]	Binder
binds	binds				Sec63 (protein, UniProt P14906 1-663) MPTNYEYDEASETWPSFILTGLLMVVGPMTLLQIYQIFFGANAEDGNSGKSKEFNEEVFKNLNEEYTSDEIKQFRRKFDKNSNKKSKIWSRRNIIIIVGWILVAILLQRINSNDAIKDAATKLFDPYEILGISTSASDRDIKSAYRKLSVKFHPDKLAKGLTPDEKSVMEETYVQITKAYESLTDELVRQNYLKYGHPDGPQSTSHGIALPRFLVDGSASPLLVVCYVALLGLILPYFVSRWWARTQSYTKKGIHNVTASNFVSNLVNYKPSEIVTTDLILHWLSFAHEFKQFFPDLQPTDFEKLLQDHINRRDSGKLNNAKFRIVAKCHSLLHGLLDIACGFRNLDIALGAINTFKCIVQAVPLTPNCQILQLPNVDKEHFITKTGDIHTLGKLFTLEDAKIGEVLGIKDQAKLNETLRVASHIPNLKIIKADFLVPGENQVTPSSTPYISLKVLVRSAKQPLIPTSLIPEENLTEPQDFESQRDPFAMMSKQPLVPYSFAPFFPTKRRGSWCCLVSSQKDGKILQTPIIIEKLSYKNLNDDKDFFDKRIKMDLTKHEKFDINDWEIGTIKIPLGQPAPETVGDFFFRVIVKSTDYFTTDLDITMNMKVRDSPAVEQVEVYSEEDDEYSTDDDETESDDESDASDYTDIDTDTEAEDDESPE
		binds	binds		Mpd1-HA (protein, UniProt Q12404 22-318) QNFYDSDPHISELTPKSFDKAIHNTNYTSLVEFYAPWCGHCKKLSSTFRKAAKRLDGVVQVAAVNCDLNKNKALCAKYDVNGFPTLMVFRPPKIDLSKPIDNAKKSFSAHANEVYSGARTLAPIVDFSLSRIRSYVKKFVRIDTLGSLLRKSPKLSVVLFSKQDKISPVYKSIALDWLGKFDFYSISNKKLKQLTDMNPTYEKTPEIFKYLQKVIPEQRQSDKSKLVVFDADKDKFWEYEGNSINKNDISKFLRDTFSITPNEGPFSRRSEYIAYLKTGKKPIKKNHSSSGNKHDEL
binds	binds			binds	Sss1 (protein, UniProt P35179 1-80) MARASEKGEEKKQSNNQVEKLVEAPVEFVREGTQFLAKCKKPDLKEYTKIVKAVGIGFIAVGIIGYAIKLIHIPIRYVIV
